The assay deals with T1, His6-tagged A. thaliana PEX5 PTS1-binding domain (residues 340-728), wild type (Arabidopsis thaliana) (UniProt Q9FMA3).
T1 sequence: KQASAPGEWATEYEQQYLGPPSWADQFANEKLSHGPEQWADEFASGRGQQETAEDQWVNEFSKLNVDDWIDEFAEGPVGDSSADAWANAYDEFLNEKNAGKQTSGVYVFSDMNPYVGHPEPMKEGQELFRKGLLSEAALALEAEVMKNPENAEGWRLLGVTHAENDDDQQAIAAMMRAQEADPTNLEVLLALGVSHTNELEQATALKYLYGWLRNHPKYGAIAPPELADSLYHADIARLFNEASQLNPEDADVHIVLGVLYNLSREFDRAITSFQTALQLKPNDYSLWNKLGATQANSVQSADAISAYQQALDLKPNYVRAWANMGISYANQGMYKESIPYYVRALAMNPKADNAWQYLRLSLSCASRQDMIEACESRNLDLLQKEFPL
The assay can be described thus: pull-down; His6-protein (12.5 µM) incubated with the combined dansyl-YQSXX library (500 nM each peptide) in 50 mM Na2HPO4, 300 mM NaCl, 10 mM 2-mercaptoethanol, 15% glycerol, pH 8.0, 4 °C, 1 h; captured on Co-NTA resin, washed, bound peptides eluted with 6 M urea and identified by ESI-LC-MS; semi-quantitative; both purified.

Results are given in words; binding and its absence hold for the method and conditions named. Where a sequence is shown, tags or fusion partners need not be part of it.

Regarding YQSFY (dansyl on the N-terminus; C-terminal CO2H) [dansyl-YQSFY], the binding entry is on record as “no binding (tested: 500 nM each peptide, 12.5 µM protein)”.

(Values after PMC5587766, “Towards designer organelles by subverting the peroxisomal import pathway” (Nature Communications, 2017).)
